PubChem BioAssay AID1508588, Peter MacCallum Cancer Centre | 2020

Screen: 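Genome-wide search for knock-downs that heighten vemurafenib action in melanoma cells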 (primary screen)
Cells: human WM266.4 melanoma cells (BRAF V600 mutant)
Knock-down reagent: siRNA pool against human genes, 40 nM
Time to read-out: 96 h from transfection to read-out
Treatment: vemurafenib 300 nM (about IC25), added 48 h after transfection, for 48 h; comparison arm got DMSO vehicle only
Detection: 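Ratios to non-targeting siRNA for cell gain, counted as DAPI nuclei after minus before drug and averaged over two replicates, and for absorbance-read medium lactate per cell; both binned into fold-change classes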
Direction: cell gain with vemurafenib: higher = more cell gain than with non-targeting siRNA; lactate per cell with vemurafenib: higher = more lactate made per cell
Active means: 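a knock-down counts as enhancing when its fold-change classes with vehicle and with vemurafenib, taken together, show a stronger drug effect on cell gain or lactate per cell; exact class pairs not stated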
Meaning of the calls: active = enhances vemurafenib effect; inactive = no enhancement seen
Shown is an unselected part of about 18,000 deposited reagents. 790 of all reagents (4.4%) count as active. 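Calls rest on a combination of fold-change classes in drug and vehicle arms, not all shown here.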 Entries without a mark were called inactive. The numbers tell different reagents against one gene apart.

no.	target	pool no.	cell gain with vemurafenib	lactate per cell with vemurafenib
1	OLIG2	1	1	0.74
2	GPR50	1	0.28	1.19
3	SLCO2A1	1	0.38	0.78
4	ARID3B	1	0.12	3
5	RNASE6	1	0.19	2.17
6	MRPL15	1	0.33	1.13
7	TRDMT1	1	0.72	0.61
8	RPP25L	1	0.27	2.24
9	H2AC6	1	0.7	1.02
10	PFDN5	1	0.7	0.68
11	VEZF1	1	0.4	0.94
12	NR1H3	1	0.31	0.94
13	TEX9	1	0.66	0.32
14	PUF60	1	0.2	1.96
15	CCKBR	1	1.05	0.54
16	KLHDC1	1	0.63 (active)	0.43
17	GRK4	1	-0.05	1.75
18	MTMR8	1	0.33	0.94
19	ASB12	1	0.99	0.66
20	RAD18	1	0.96	0.82
21	MAGED2	1	0.78	0.67
22	ZNF286A	1	0.52	0.53
23	AMD1	1	0.22	1.39
24	HP	1	0.5	0.7
25	ZNF461	1	0.31	1.23
26	CNTN3	1	0.42	1.09
27	GUCY2F	1	0.75	0.82
28	COL27A1	1	0.86	0.37
29	CD14	1	0.59	1.15
30	OPN5	1	0.22	2.44
31	TRPC4AP	1	0.8	0.8
32	USP45	1	0.93	0.52
33	MESD	1	1.03	0.7
34	THAP12	1	0.17	2.8
35	TMLHE	1	0.86	0.99
36	RCAN2	1	0.69	0.96
37	JAK1	1	0.73	0.57
38	MYOT	1	1.12	0.92
39	SH3BP4	1	0.65	0.46
40	MKLN1	1	0.79	0.69
41	TIMP1	1	0.52	1.46
42	HMGB3	1	0.51	1.12
43	MRPS27	1	0.38	0.76
44	IL12A	1	0.83	0.58
45	AGER	1	0.3	1.27
46	EXOSC10	1	-0.12	2
47	ANGPTL3	1	0.9	0.88
48	CES2	1	0.36	1.73
49	CACNA1E	1	0.67	0.92
50	FUT7	1	0.73	0.88
51	FAM180A	1	0.36	1.92
52	LSM6	1	0.23	2.32
53	ZNF474	1	0.73	0.87
54	SAPCD2	1	1.05	0.88
55	TMEM186	1	0.41	0.94
56	KRTAP4-2	1	0.78	1.38
57	OXT	1	0.46	1.1
58	ENTPD7	1	0.77	1.03
59	EIF6	1	0.34	1.96
60	CTXN3	1	0.81	1.64
61	PNMA2	1	0.96	0.42
62	MPIG6B	1	0.5	0.44
63	NAIF1	1	0.18	0.98
64	CFAP46	1	0.38	0.64
65	CFAP46	2	0.67	0.78
66	COPZ1	1	0.34	1.18
67	ALDH1L1	1	0.29	1.75
68	ATP6AP2	1	0.4	0.78
69	AFF4	1	0.48	0.76
70	FXYD6	1	0.59	0.79
71	RBM33	1	0.61	1.43
72	SCN4B	1	0.85	0.88
73	OIT3	1	1.01	1.25
74	SERP1	1	0.6	1.68
75	P2RY12	1	0.34 (active)	0.57
76	RETREG2	1	0.34	0.74
77	ZNF662	1	0.72	1.05
78	SPTY2D1	1	0.66	0.52
79	RBBP9	1	0.41	1
80	GALNT6	1	0.69	0.82
81	POLDIP2	1	0.72	0.92
82	SEMA4D	1	0.8	0.78
83	SEMA4D	2	0.89	0.89
84	USP25	1	0.75	0.76

Part of the list above in another layout:
TRDMT1: cell gain with vemurafenib = 0.72; lactate per cell with vemurafenib = 0.61
RPP25L: cell gain with vemurafenib = 0.27; lactate per cell with vemurafenib = 2.24
H2AC6: cell gain with vemurafenib = 0.7; lactate per cell with vemurafenib = 1.02
PFDN5: cell gain with vemurafenib = 0.7; lactate per cell with vemurafenib = 0.68
VEZF1: cell gain with vemurafenib = 0.4; lactate per cell with vemurafenib = 0.94
NR1H3: cell gain with vemurafenib = 0.31; lactate per cell with vemurafenib = 0.94
TEX9: cell gain with vemurafenib = 0.66; lactate per cell with vemurafenib = 0.32
PUF60: cell gain with vemurafenib = 0.2; lactate per cell with vemurafenib = 1.96
CCKBR: cell gain with vemurafenib = 1.05; lactate per cell with vemurafenib = 0.54
KLHDC1: cell gain with vemurafenib = 0.63 (active); lactate per cell with vemurafenib = 0.43
GRK4: cell gain with vemurafenib = -0.05; lactate per cell with vemurafenib = 1.75
MTMR8: cell gain with vemurafenib = 0.33; lactate per cell with vemurafenib = 0.94
